Earlier results in US10059681B2, “Disubstituted maleic anhydrides with altered kinetics of ring closure” (Arrowhead Madison Inc., priority 2011, dated 2018).
At least one structure is not confirmed: it was looked up by name or label, or the drawing left a doubt.

C/C(C(N)=O)=C(\CCC(=O)O)C(=O)O [2-propionic-3-methylmaleamic acid]
reverse reaction compared with 2,3-dimethylmaleamic acid: the same
